The source of these data is the GenesisPotency data set.

This is a selection; strong and weak results do not stand in their true shares. Only a part of the results of these assays is listed, not drawn at random.

For this experiment, the target named is T1, Peroxisome proliferator-activated receptor delta, Homo sapiens (UniProt Q03181).
T1 sequence (whole entry): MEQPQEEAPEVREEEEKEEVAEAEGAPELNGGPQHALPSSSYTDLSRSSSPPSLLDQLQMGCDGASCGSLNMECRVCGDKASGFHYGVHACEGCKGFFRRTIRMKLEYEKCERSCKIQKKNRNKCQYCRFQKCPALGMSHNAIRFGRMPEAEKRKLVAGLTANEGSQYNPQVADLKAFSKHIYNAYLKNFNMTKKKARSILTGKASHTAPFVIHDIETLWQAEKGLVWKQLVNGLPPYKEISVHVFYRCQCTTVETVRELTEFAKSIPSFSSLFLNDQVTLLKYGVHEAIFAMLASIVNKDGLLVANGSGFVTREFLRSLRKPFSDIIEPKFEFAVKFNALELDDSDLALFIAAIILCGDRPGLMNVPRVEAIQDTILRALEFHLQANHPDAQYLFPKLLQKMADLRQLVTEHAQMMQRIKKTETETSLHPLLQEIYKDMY
The experiment can be described thus: PubChem AID 743227.
Turning to `CC[N+]1(CCOC(=O)C(O)(c2ccccc2)c2ccccc2)CCCCC1.[Br-]`, the compound was called inactive.
